{
  "source": "paper PMC10564176",
  "biological_target": "TsmK with STREP tag (TsmK^STREP) (Acinetobacter baumannii ATCC 17978)",
  "assay": "pull-down; two proteins co-produced in E. coli BL21(DE3); detergent-solubilised extract (DDM, DM-NPG) on Strep- or His-Trap-HP, 50 mM Tris-HCl pH 8.0, 50 mM NaCl, 0.05% DM-NPG; eluate immunoblotted",
  "note": "No constants are given. Whether binding was seen depends on the method and setting. In cells and extracts the contact can be indirect. A result given as binding can be weak or reduced; the word gives no strength.",
  "data": [
    {"binder": "TssK (co-produced in E. coli) (protein, UniProt R9RHI9 1-454) MFKAEKVLWGEGLFLRPQHFQIQDTYHEQRLNHTVRAVVPFSYGVQKLSFDEAQLSTHILALETVEMIWQDGEIYQAPAYDLLPEPILLDELNLRGEMVIYLALPLLQANKQNLIDQNQSQKGRYQSHLVETHDLFTNATEADISLLRRRAVFKLLDVNSNPDHNLDGFLYLPIGKIKRQSSGAFEIDRKFIPPILHVDASETLVSNLKRTLNVIKAKIKTIQTNNRENEQKLIEFRSGDIVSFWLVNALNTAHAGLNHFLQYPQIHPERLFFELLRLAGSLLTFSTAYEVDQLPAYKHHNLQESFTQLDTILRDLLDTIISSRYISIALKEIRPSYWVGSLETDKITRDTRLYIAVSSSAMQTHELIQIVPLRFKIGSTLDVEQRVVAALPAIPLHHLIQVPTAIPVRSGVSYFEIEPHHELYQRMLDSETICIYVPAGFQDISIELIAVMNA", "values": [
      {"measurement": "binding", "value": "binds"}
    ]}
  ]
}
